Measured values: article doi:10.1101/112466
No constants are given. Whether binding was seen depends on the method and setting. In cells and extracts the contact can be indirect. Some results given as binding are weak or reduced against the parent protein; the word gives no strength.

Chains of the proteins cited; added tags and fusions are not shown. Lines headed by an entry give the natural chain unless they say otherwise; changes in a name come on top. Residues count along the entry.
UniProt O95136: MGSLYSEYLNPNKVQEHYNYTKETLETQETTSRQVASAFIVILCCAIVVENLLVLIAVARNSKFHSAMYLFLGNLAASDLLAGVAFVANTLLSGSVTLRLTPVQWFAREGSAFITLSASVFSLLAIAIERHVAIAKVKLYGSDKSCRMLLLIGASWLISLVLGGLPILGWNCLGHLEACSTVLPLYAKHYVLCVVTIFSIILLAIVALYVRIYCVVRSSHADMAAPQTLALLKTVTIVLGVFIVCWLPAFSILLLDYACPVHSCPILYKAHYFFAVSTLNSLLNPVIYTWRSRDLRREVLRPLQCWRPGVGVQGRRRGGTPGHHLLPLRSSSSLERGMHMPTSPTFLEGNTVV
UniProt Q9H228: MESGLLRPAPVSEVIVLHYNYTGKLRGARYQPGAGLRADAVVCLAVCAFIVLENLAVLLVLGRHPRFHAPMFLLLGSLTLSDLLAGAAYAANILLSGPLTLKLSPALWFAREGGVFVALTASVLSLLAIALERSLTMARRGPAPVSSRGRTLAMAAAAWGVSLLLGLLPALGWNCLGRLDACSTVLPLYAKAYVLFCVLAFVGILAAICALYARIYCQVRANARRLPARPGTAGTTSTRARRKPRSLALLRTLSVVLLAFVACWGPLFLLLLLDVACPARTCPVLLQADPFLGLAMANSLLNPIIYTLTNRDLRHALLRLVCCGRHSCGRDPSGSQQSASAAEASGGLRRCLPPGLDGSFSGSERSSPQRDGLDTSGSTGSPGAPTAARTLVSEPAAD
UniProt Q9BXB1, residues 25-951: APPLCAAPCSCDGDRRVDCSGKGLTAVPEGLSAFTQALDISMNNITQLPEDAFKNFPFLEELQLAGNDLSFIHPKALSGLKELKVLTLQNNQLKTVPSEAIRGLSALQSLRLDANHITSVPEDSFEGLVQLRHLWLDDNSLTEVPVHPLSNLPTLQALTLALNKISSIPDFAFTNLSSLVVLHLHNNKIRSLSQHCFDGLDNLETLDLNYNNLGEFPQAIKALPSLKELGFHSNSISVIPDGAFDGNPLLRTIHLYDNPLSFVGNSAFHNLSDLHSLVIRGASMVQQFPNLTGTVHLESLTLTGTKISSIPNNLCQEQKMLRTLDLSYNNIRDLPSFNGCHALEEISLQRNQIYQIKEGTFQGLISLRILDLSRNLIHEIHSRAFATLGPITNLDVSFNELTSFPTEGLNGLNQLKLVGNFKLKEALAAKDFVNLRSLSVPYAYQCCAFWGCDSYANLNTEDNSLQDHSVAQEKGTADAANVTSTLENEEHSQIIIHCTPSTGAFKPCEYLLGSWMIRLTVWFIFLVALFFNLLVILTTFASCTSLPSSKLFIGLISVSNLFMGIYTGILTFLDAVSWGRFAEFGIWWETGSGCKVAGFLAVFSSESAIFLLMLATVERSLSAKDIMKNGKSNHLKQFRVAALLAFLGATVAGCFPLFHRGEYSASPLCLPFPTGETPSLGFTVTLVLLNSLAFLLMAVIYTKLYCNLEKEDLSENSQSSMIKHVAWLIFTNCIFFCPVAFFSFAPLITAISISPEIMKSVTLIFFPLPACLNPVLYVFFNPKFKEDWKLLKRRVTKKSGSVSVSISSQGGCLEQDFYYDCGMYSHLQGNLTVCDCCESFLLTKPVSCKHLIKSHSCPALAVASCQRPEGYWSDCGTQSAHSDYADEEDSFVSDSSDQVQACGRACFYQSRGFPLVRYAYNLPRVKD
UniProt P18825: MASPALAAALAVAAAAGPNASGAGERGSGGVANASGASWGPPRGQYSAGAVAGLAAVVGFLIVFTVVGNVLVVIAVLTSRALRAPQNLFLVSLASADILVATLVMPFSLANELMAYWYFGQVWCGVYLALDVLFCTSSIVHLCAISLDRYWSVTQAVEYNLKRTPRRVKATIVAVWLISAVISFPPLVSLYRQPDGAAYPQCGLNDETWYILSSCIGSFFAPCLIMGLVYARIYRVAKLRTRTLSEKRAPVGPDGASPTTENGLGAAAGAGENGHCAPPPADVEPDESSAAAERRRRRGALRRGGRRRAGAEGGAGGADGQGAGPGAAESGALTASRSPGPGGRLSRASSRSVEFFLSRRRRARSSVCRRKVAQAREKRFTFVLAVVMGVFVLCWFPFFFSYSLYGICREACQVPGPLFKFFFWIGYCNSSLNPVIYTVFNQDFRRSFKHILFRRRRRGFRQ

Key:
Assay in all cases: FRET or BRET
[1] = target: S1P receptor S1P2 (human) (UniProt O95136)
[2] = target: S1P receptor S1P5 (human) (UniProt Q9H228)
[3] = target: leucine-rich repeat containing receptor LGR4 (human) (UniProt Q9BXB1)
[4] = target: α2C-adrenergic receptor (human) (UniProt P18825)

S1P receptor S1P2 (from UniProt O95136 1-353)
binding [1]: binds

S1P receptor S1P5 (from UniProt Q9H228 1-398)
binding [2]: binds

leucine-rich repeat containing receptor LGR4 (from UniProt Q9BXB1 25-951)
binding [3]: binds

α2C-adrenergic receptor (from UniProt P18825 1-462)
binding [4]: binds
